For 17 compounds, z-score and AC50 results are on record in PubChem BioAssay (NCATS).

The test is described as follows: qHTS for identification of novel therapeutic agents for treatment of microphthalmiaassociated transcription factor (MiT) renal cell carcinoma (RCC) (AID 1963991). To be noted: CellTiter-Glo, 48 h; for z-score: stronger effect = lower value. Put shortly: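 UOK109/UOK124/UOK145 (TFE3 fusions, three partners); 500 cells/well; MIPE v4.0, 1912 cpds, 11 conc.; 48 h, 37 C; CellTiter-Glo, 15 min RT; lum. Norm.: DMSO 100%, empty 0%.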
On the technique in general: Quantitative high-throughput screening tests each substance at several concentrations.

The mark [1] stands for this setting: TFE3-RCC UOK109 viability, measured here: UOK109 Z-AUC.
Setting [2] is: TFE3-RCC viability, measured here: UOK124 Z-AUC.
Setting [3] is: TFE3-RCC viability, measured here: UOK124 cell viability.
Setting [4] is: TFE3-RCC viability, measured here: UOK145 Z-AUC.
Where [5] appears, read: TFE3-RCC viability, measured here: UOK145 cell viability.

This is one part of the list. Further columns of the screen follow, without active or inactive calls. Most of these compounds were active or inconclusive in the main read-out, so they are no random draw. Potencies come from curve fits of mixed quality, noted in brackets.

For orientation: AC50 means the concentration giving half of the maximal activity seen. Turning to `Cc1ccc(S(=O)(=O)Nc2nc3ccccc3nc2Nc2ccc3nsnc3c2)cc1`, the z-score is -0.572 under setting [1], -0.64 under setting [2] and -0.369 under setting [4]. For the same compound, the AC50 runs as follows: under setting [3], 0.229 µM [falling, full curve]; under setting [5], 1.02 µM [falling, full curve].

Turning to `CN(C)C(=O)COC(=O)Cc1ccc(OC(=O)c2ccc(N=C(N)N)cc2)cc1`, the z-score is -0.36 under setting [1], -2.53 under setting [2] and 0.196 under setting [4]. For the same compound, the AC50 is 37.2 µM [falling, partial curve, poor fit] under setting [3] and 20.9 µM [falling, partial curve] under setting [5].

Turning to `COc1cc2ncnc(Nc3ccc(F)c(Cl)c3)c2cc1NC(=O)C=CCN1CCCCC1`, the z-score is -2.93 under setting [1], -0.526 under setting [2] and -0.185 under setting [4]. In addition, the AC50 by setting is: under setting [3], 14.8 µM [falling, partial curve]; under setting [5], 14.8 µM [falling, partial curve].

Consider `CC(=O)c1c(C)c2cnc(Nc3ccc(N4CCNCC4)cn3)nc2n(C2CCCC2)c1=O`, for which the z-score runs as follows: under setting [1], -0.522; under setting [2], -0.155; under setting [4], 0.192. The AC50 reads like this: under setting [3], 29.6 µM [falling, partial curve]; under setting [5], 18.7 µM [falling, partial curve].

Turning to `COc1cc2nc(-c3cc(F)ccc3O)nc(N[C@@H]3CNC[C@@H]3C(C)(C)O)c2cc1OC`, the z-score is, setting by setting: under setting [1], -0.872; under setting [2], -0.644; under setting [4], 0.162. Further, the AC50 under setting [3] was 13.2 µM [falling, partial curve] and the AC50 under setting [5] is 20.9 µM [falling, partial curve].

With `NS(=O)(=O)OC[C@@H]1C[C@@H](n2ccc3c(N[C@H]4CCc5ccccc54)ncnc32)C[C@H]1O`, the z-score is -0.144 under setting [1], 0.377 under setting [2] and -1.08 under setting [4]. Further, the AC50 by setting is: under setting [3], 3.72 µM [falling, full curve]; under setting [5], 2.96 µM [falling, full curve].

As for `C=Cc1c(C)c2cc3nc(cc4[nH]c(cc5nc(cc1[nH]2)C(C)=C5CCC(=O)O)c(CCC(=O)OC)c4C)[C@@]1(C)C3=CC=C(C(=O)OC)[C@H]1C(=O)OC`, the z-score is, setting by setting: under setting [1], -1.42; under setting [2], -0.687; under setting [4], -1.83. Further, the AC50 is 2.96 µM [falling, full curve] under setting [3] and 1.18 µM [falling, full curve] under setting [5].

Turning to `CCC[C@H](NC(=O)C(C#N)=Cc1cccc(Br)n1)c1ccccc1`, the z-score reads like this: under setting [1], -0.452; under setting [2], -0.358; under setting [4], -0.239. Also, the half-maximal activity concentration (AC50) was 2.64 µM [falling, full curve] under setting [3] and 8.33 µM [falling, full curve] under setting [5].

Consider `Nc1ccn([C@@H]2O[C@H](CO)[C@@H](O)[C@H]2O)c(=O)n1`, for which the z-score by setting is: under setting [1], -0.382; under setting [2], -0.0937; under setting [4], -2.07. Also, the AC50 is, setting by setting: under setting [3], 0.332 µM [falling, partial curve, poor fit]; under setting [5], 0.0332 µM [falling, full curve].

With `CNC(=O)c1ccc(N2C(=S)N(c3cnc(C#N)c(C(F)(F)F)c3)C(=O)C23CCC3)cc1F`, the z-score runs as follows: under setting [1], -0.513; under setting [2], -0.209; under setting [4], -1.24. The AC50 under setting [3] was 26.4 µM [falling, partial curve, poor fit] and the AC50 under setting [5] is 1.66 µM [falling, full curve].

With `COc1ccc(C(=O)CC(=O)c2ccc(C(C)(C)C)cc2)cc1`, the z-score runs as follows: under setting [1], 0.0737; under setting [2], 0.308; under setting [4], 0.53. Also, the AC50 runs as follows: under setting [3], 13.2 µM [falling, partial curve]; under setting [5], 6.62 µM [falling, full curve].

Take `CCC(=C(CC)c1ccc(O)cc1)c1ccc(O)cc1`: the z-score under setting [1] came out at 0.786, the z-score under setting [2] amounted to 0.265 and the z-score under setting [4] was -0.368. Besides, the AC50 by setting is: under setting [3], 14.8 µM [falling, partial curve]; under setting [5], 29.6 µM [falling, single point].

`CON(C)C(=O)N1N=C(c2cc(F)ccc2F)S[C@]1(CCCN)c1ccccc1`: the z-score is, setting by setting: under setting [1], -1.77; under setting [2], -0.717; under setting [4], -1.91. Also, the half-maximal activity concentration (AC50) is 37.2 µM [falling, single point] under setting [3] and 26.4 µM [falling, single point] under setting [5].

`Cc1[nH]c(C=C2C(=O)Nc3ccc(S(=O)(=O)Cc4c(Cl)cccc4Cl)cc32)c(C)c1C(=O)N1CCC[C@H]1CN1CCCC1`: the z-score came out at 0.251 under setting [1], 0.14 under setting [2] and 0.214 under setting [4]. In addition, the AC50 under setting [3] is 16.6 µM [falling, partial curve] and the AC50 under setting [5] was 26.4 µM [falling, partial curve].

Take `CCN(CC)CCCCNc1nc2cc(Cl)c(Cl)cc2nc1-c1ccc(-c2cccs2)s1`: the z-score under setting [1] is 0.0449, the z-score under setting [2] was -0.432 and the z-score under setting [4] came to 0.101. Besides, the AC50 was 8.33 µM [falling, full curve] under setting [3] and 33.2 µM [falling, single point] under setting [5].

For the compound `COc1cc([C@@H]2c3cc4c(cc3[C@@H](O[C@@H]3O[C@@H]5CO[C@@H](c6cccs6)O[C@@H]5[C@H](O)[C@@H]3O)[C@H]3COC(=O)[C@H]23)OCO4)cc(OC)c1O`, the z-score was -0.248 under setting [1], -0.914 under setting [2] and -1.83 under setting [4]. The AC50 reads like this: under setting [3], 0.743 µM [falling, full curve]; under setting [5], 0.418 µM [falling, full curve].

With `Cc1cccc(-c2nn(C(=S)Nc3ccccc3)cc2-c2ccnc3ccccc23)n1`, the z-score was 0.504 under setting [1], -0.622 under setting [2] and 0.562 under setting [4]. In addition, the AC50 runs as follows: under setting [3], 0.0372 µM [falling, full curve, poor fit]; under setting [5], 9.35 µM [falling, partial curve, poor fit].
